The values below come from US9981005.

Amino acid sequences for entries named in this document (tags omitted). A change or cut given only in a name is not applied to a line headed by its entry.
UniProt Q969H0: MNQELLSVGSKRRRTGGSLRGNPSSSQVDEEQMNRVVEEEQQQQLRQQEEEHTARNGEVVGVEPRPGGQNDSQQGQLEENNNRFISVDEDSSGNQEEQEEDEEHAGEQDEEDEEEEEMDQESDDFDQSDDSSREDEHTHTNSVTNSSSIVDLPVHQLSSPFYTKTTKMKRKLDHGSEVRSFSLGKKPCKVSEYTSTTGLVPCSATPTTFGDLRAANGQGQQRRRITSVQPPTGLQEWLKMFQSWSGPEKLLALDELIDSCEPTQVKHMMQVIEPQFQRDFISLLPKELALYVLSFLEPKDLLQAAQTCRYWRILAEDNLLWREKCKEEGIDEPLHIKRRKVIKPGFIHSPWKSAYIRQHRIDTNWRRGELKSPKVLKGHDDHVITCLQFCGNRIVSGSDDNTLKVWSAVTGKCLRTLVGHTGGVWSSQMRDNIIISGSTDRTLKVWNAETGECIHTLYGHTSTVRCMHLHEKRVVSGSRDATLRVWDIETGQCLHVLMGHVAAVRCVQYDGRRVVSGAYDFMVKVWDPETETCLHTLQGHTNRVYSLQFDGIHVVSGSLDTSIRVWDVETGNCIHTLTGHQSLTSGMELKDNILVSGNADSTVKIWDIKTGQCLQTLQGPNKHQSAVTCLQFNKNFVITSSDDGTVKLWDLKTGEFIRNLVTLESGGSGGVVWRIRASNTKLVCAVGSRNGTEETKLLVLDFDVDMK

This assay concerns the target FLAG-tagged FBXW7 (Homo sapiens (Human)) (UniProt Q969H0). The experiment in a line: co-immunoprecipitation from HEK293 lysate, anti-FLAG beads, Western blot. On the technique in general: Immunoblotting shows a protein as a band on a membrane.

No constants are given. Whether binding was seen depends on the method and setting. In cells and extracts the contact can be indirect. Some binding calls cover weakened binding; strength is not graded here. Tags and fused reporters may be left off the sequences shown.

B1: GFP-tagged DISC1 (protein, not shown: large carriers)
chain: MPGGGPQGAPAAAGGGGVSHRAGSRDCLPPAACFRRRRLARRPGYMRSSTGPGIGFLSPAVGTLFRFPGGVSGEESHHSESRARQCGLDSRGLLVRSPVSKSAAAPTVTSVRGTSAHFGIQLRGGTRLPDRLSWPCGPGSAGWQQEFAAMDSSETLDASWEAACSDGARRVRAAGSLPSAELSSNSCSPGCGPEVPPTPPGSHSAFTSSFSFIRLSLGSAGERGEAEGCPPSREAESHCQSPQEMGAKAASLDGPHEDPRCLSRPFSLLATRVSADLAQAARNSSRPERDMHSLPDMDPGSSSSLDPSLAGCGGDGSSGSGDAHSWDTLLRKWEPVLRDCLLRNRRQMEVISLRLKLQKLQEDAVENDDYDKAETLQQRLEDLEQEKISLHFQLPSRQPALSSFLGHLAAQVQAALRRGATQQASGDDTHTPLRMEPRLLEPTAQDSLHVSITRRDWLLQEKQQLQKEIEALQARMFVLEAKDQQLRREIEEQEQQLQWQGCDLTPLVGQLSLGQLQEVSKALQDTLASAGQIPFHAEPPETIRSLQERIKSLNLSLKEITTKVCMSEKFCSTLRKKVNDIETQLPALLEAKMHAISGNHFWTAKDLTEEIRSLTSEREGLEGLLSKLLVLSSRNVKKLGSVKEDYNRLRREVEHQETAYETSVKENTMKYMETLKNKLCSCKCPLLGKVWEADLEACRLLIQSLQLQEARGSLSVEDERQMDDLEGAAPPIPPRLHSEDKRKTPLKVLEEWKTHLIPSLHCAGGEQKEESYILSAELGEKCEDIGKKLLYLEDQLHTAIHSHDEDLIQSLRRELQMVKETLQAMILQLQPAKEAGEREAAASCMTAGVHEAQA
For the molecule B1, the binding entry is on record as “binds”.

B2: V5-tagged DISC1 (protein, not shown: small tags and cut ends)
chain: MPGGGPQGAPAAAGGGGVSHRAGSRDCLPPAACFRRRRLARRPGYMRSSTGPGIGFLSPAVGTLFRFPGGVSGEESHHSESRARQCGLDSRGLLVRSPVSKSAAAPTVTSVRGTSAHFGIQLRGGTRLPDRLSWPCGPGSAGWQQEFAAMDSSETLDASWEAACSDGARRVRAAGSLPSAELSSNSCSPGCGPEVPPTPPGSHSAFTSSFSFIRLSLGSAGERGEAEGCPPSREAESHCQSPQEMGAKAASLDGPHEDPRCLSRPFSLLATRVSADLAQAARNSSRPERDMHSLPDMDPGSSSSLDPSLAGCGGDGSSGSGDAHSWDTLLRKWEPVLRDCLLRNRRQMEVISLRLKLQKLQEDAVENDDYDKAETLQQRLEDLEQEKISLHFQLPSRQPALSSFLGHLAAQVQAALRRGATQQASGDDTHTPLRMEPRLLEPTAQDSLHVSITRRDWLLQEKQQLQKEIEALQARMFVLEAKDQQLRREIEEQEQQLQWQGCDLTPLVGQLSLGQLQEVSKALQDTLASAGQIPFHAEPPETIRSLQERIKSLNLSLKEITTKVCMSEKFCSTLRKKVNDIETQLPALLEAKMHAISGNHFWTAKDLTEEIRSLTSEREGLEGLLSKLLVLSSRNVKKLGSVKEDYNRLRREVEHQETAYETSVKENTMKYMETLKNKLCSCKCPLLGKVWEADLEACRLLIQSLQLQEARGSLSVEDERQMDDLEGAAPPIPPRLHSEDKRKTPLKVLEEWKTHLIPSLHCAGGEQKEESYILSAELGEKCEDIGKKLLYLEDQLHTAIHSHDEDLIQSLRRELQMVKETLQAMILQLQPAKEAGEREAAASCMTAGVHEAQA
On to B2, for which the binding entry is “binds”.
